# Variants at the floor of the assay are shown more often than the library holds them.
# B1: tRNA (parent)
# chain: GUUCCGUUGGCGUAAUGGUAACGCGUCUCCCUCCUAAGGAGAAGACUGCGGGUUCGAGUCCCGUACGGAACG
# Variants of: B1
# Test: yeast fitness relative to wild type (ratio to wild type); higher = fitter; tRNA-Arg(CCU), competitive growth, 37 C, YPD
# Method in brief: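 Genotype frequency changes were the basis for Darwinian fitness relative to wild type. The frequencies came from 100-nucleotide paired-end sequencing of gene amplicons from the start population and each end population of pooled yeast strains with tRNA-Arg(CCU) gene variants at the native locus. Competition ran in YPD at 37°C for 24 hours in six replicates, genotypes needed ≥ 100 starting reads, and estimates < 0.5 were set to 0.5.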
row,Variant,yeast fitness
1,GUUCCGUUGACGUAAUGGUAACGCGUCUACCUCGUAAGGAGACGACUGCGGGUUCGAGCGCCGUACGGAACG,≤ 0.5
2,GUUCUGUUGGCGUAAUGGUAUCGCGUCUCGCUCCUAAGGAGAAGACUGCGGGUUCGAGUCCCGUACGAAACG,≤ 0.5
3,GCUUCGUUGCCGUAAUGGUAACGCGUCUCCCUCCUAAGGAGAAGACUGCGGGUUCGCGUCCCGUACGGACCG,≤ 0.5
4,GUUCGGUUGGCGUAAUGGUAACGCGGCUCCCUCCUAAGGAGAAGACUGCGGGUUGGAGUCCCGUCCGGAACG,≤ 0.5
5,GUUUCGGUGGCGUAAUGGUAACGCGUCUCCCUCGUAAGGAGAAGACUGCGGGUUCGAGUCUCGUACGGAACG,≤ 0.5
6,GUUCCGUUGCCGUAAUGGCAAAGCGUCUCCCUCGUAAGGAGAAGACUGCGGGUUCGAGUCCCGUACGGAACG,≤ 0.5
7,GUUCCGUUGGCAUAUUGGUACCGCGUCUCCCUCCUAAGGAGAAGACUGCGGGUUCGAGUCCCGUACGGAACG,≤ 0.5
8,GUUCCGCUGGCGUAAUGGUAACGCGUCUCCCUCCUAAGGAGAAGACUGCGGGUUCGAGUCCCGUACGGCACG,0.921
9,GUUCCGGUGGCGUAAUGGUAAUGCGUCUCCCUCCUAAGGAGAAGACUGCGGAUUUGAGUCCCGUACGGAACG,≤ 0.5
10,GUUCCGUUAGCGUAAAGGUAACCAGUCGCCCUCUUAUGGAGAAGACUGCGGGUUCGAGUCCCGUACGAAACG,≤ 0.5
11,GUUCCGUUGGCGUAUUGGUAACGUGUUUCCCUCCUAAGGAGAAGACUGCGGGUUCGAGUACUGCACGACACG,≤ 0.5
12,GUUCAGUUGCCGUAAUGGUAACGCGCCUCCCUCCUAAGGUGCAGACUGCGGGUUCGAGUCCCGUACAGAACG,≤ 0.5
13,GUUCCGUUGGCGUAAUGGUAACGCGUCUUCCUCCUAAGGAGAGAAAUGCGGGUUCGAGUCCCGUACGGAACG,0.609
14,GUUCCGUUGGCGUAACGGUAACGCGUCUCCCUGCUAAGCAGAAGACUGCGGGUUCGAGUCCCGUACGGCACG,≤ 0.5
15,GUUCCGAUGGCGUAAUGGUAACGCGUCUCCCUCCUUAGGAGAAGGCAGCGGGUUCGAGUCCCGUACGGCUCG,≤ 0.5
16,GUUCCGUUGACGUAAUGGUAACGCGUCUGCCUCCUAAGGAGAAGACUGCGGAUUCGAGUCCCGUACGGAACG,≤ 0.5
17,GUUCUCUUGGCGUAAUGGUAACGCGUCUCCCUCCUAAGGAGAACACUGCGGGUUCGAGCCCCGUACGGAACG,≤ 0.5
18,GUUCCGCUGGCGUAAUGGUAACGCGUCUCCCUCCUAAGGAGGAGACUGCGGGUCCGAGUCCCGUACGGAACG,0.549
19,GUUCCGUUGGCGUAAUGGUAACGCGUGUCCUUCGUAGGGAGAAGACUGCGGGUUCGAGUCCCGUACGGAACG,≤ 0.5

row,Variant,yeast fitness
1,GUUCCGUUGGCGUAAUGGUAAUACGUCUCCCUCCUAAGGAGAAGACUGCGGGUUCGAGUCCCGUUCGGAACG,≤ 0.5
2,GUUCCGUUGACGUAAUGGUAACGCGUCUUCCUCUUAAGGAGAAGACUGCAGGUUGGAGUCCCGUACGGAACG,≤ 0.5
3,GUUCGGUUGGCGUAAUGGUAACGCGUCUCCCUCGUAAGGAGAAGACUGCGGGUUCGAGUCCGAUACGGAACG,≤ 0.5
4,GUUCCGUUGGCGUAAUGGUAACGCGUCUCCCUCCUAACGAGAAGACAGCGGGUUCGAGUCCCGUGCGGAACG,≤ 0.5
5,GUUCCGUCGGCGUAAUGGUAACGCGUCUGCCCCCUAAGGAGAAGACUGCGGGUUCGAGUCCCGUACGGAACG,≤ 0.5
6,GUUCCGUUGGCGUAGUGGUAACGCGUCUCCGUCCUAAGGAGAAGACGGGGGGUUCGAGUCCCGUACGGAACG,0.545
7,GUUCCGUUGGCGUAAUGGUAAUGCGUCUCCCUCCUAAGGAGAUGACUGCGGGUUCGAGCCCCGUAUGGAACG,≤ 0.5
8,GUUUCGUUGGCGUAAUGGUAACGCGUGUCCCUCCUAAGGAGAAGACUGCGGAUUCGAGUCCCGUACGGAACG,≤ 0.5
9,GUUCCGUUGGCGUAAUGGUAAUGCGUCUCCCUCCUAAGGAGAAGAGUGCGGGUUCCAGUCCCGUACGGAACG,≤ 0.5
10,GUACCGUUGGCGUAAUGGUAAUGCGUCACCCUCCUAUGGAGAAGACUGCGCGUUCGAGUCCCGUAUGGAACG,≤ 0.5
11,GUUCCGUUGGCGUAAUGGUAACGCGUCUCCCUCCUAUGGAGAAGACUGCGGGUUCGUGUCCUGUACGGAACG,≤ 0.5
12,GUUCCGUUGGCGUAAUGGUAACGCGUCUCCCUCUUAAGGAGAAGACUGCGGGUUCGAGUCCCAUAUGGAACG,≤ 0.5
13,GUUCCGUUGGCGUAAUGGUAACGUGUCUCCCUCGUAAGGAGAAGACUGCGGGUUCGAGUCCCUUACGGAUCG,0.542
14,GUUCCGCUGGCGUAAUGGUAACGCGUCUCUCUCCUAAGGAGAAGACUGCGGGUACGAGUCCCGUACGGAACG,≤ 0.5
15,GUUCCGUUGCCGUAAUGGUAAAGGGUCUCCCUCCUAAGGAGAAGACUGCGGGUUCGAGUCCCGUACGGAACG,≤ 0.5
16,GUUCCGUUGGCGUAAUGGUAACGCGUCUCCCUCCUAAGGAGAAGACUGCAGGUUCGAGCCCCGUAUGGAACG,≤ 0.5
17,GUUCGGUUGGCGUAAUGGUAACGCAUCUCCCUCCUAAGGAGAAGACUACGGGUUCGAGUCCCGUACGGAACG,0.724
18,GUUCCGUUCGCGUAAUGGUAACGCGUCUCCAUCCUAAGGAGAAGACUGCGGGUUCGAGUCCGGUACGGAACG,≤ 0.5
19,GUACCGUUGGCGUUAUGGUAACGCGUCUCCCUCCUAAGGAGAAGACUGCGGGUUCGAGUCCCGUAUGGAACG,≤ 0.5

# — the RNAGym collection of RNA variant scans (doi:10.1126/science.aae0568)
